According to publication doi:10.1101/2021.09.06.459192:
These are yes or no findings as the source states them, for the method shown. Binding seen in cells or lysates may run through a third protein. A yes stands for co-enrichment or nearness to the bait. Other partners may have been found.

By UniProt entry, the sequences of proteins in these tests, tags left out.
UniProt P42945: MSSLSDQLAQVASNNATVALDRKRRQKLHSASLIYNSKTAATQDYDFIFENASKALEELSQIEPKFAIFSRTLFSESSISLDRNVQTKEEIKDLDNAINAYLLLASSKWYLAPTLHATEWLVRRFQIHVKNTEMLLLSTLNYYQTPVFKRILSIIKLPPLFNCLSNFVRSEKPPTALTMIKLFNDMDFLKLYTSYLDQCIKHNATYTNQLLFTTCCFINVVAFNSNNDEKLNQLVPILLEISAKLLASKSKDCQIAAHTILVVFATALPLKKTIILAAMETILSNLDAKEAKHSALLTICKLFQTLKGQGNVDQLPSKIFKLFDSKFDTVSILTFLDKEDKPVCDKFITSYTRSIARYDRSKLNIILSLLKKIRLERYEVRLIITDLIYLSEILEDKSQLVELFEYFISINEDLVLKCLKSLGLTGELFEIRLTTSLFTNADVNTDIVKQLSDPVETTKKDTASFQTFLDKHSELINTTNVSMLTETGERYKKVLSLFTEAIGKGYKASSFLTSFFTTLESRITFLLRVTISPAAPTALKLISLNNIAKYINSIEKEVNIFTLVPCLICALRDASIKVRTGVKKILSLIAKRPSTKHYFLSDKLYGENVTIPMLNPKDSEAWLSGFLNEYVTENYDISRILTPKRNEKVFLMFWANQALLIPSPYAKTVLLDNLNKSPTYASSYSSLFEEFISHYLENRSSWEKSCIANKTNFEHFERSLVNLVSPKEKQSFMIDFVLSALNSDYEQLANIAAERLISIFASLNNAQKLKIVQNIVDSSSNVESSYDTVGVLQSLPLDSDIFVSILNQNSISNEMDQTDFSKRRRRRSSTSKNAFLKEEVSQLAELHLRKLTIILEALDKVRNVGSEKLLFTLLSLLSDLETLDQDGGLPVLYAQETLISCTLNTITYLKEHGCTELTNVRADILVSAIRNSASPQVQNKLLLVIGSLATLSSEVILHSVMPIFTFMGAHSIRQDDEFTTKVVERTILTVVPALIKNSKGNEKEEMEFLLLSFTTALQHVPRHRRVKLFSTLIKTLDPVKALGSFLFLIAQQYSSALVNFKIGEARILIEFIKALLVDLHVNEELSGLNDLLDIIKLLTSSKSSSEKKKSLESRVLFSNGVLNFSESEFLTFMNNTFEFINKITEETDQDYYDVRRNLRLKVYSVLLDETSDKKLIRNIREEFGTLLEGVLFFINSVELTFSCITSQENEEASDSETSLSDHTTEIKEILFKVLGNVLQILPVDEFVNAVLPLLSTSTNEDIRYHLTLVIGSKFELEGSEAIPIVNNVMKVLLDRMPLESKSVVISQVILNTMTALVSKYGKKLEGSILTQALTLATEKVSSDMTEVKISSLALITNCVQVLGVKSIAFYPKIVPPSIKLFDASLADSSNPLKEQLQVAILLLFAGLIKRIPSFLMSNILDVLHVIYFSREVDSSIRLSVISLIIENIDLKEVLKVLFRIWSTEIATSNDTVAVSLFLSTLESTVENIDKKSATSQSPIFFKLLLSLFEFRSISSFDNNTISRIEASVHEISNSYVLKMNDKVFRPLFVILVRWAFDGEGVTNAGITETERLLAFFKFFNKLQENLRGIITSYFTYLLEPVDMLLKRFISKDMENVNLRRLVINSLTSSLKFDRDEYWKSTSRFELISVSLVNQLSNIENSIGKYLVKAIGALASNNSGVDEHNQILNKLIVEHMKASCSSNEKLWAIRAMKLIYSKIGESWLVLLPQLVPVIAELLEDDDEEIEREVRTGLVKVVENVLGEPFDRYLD

molecular target: Utp10-TAP (S. cerevisiae) (UniProt P42945); assay: affinity purification with mass spectrometry

Binder	binding
Noc4 (protein, UniProt Q06512 1-552) MVLLISEIKDIAKRLTAAGDRKQYNSIIKLINELVIPENVTQLEEDETEKNLRFLVMSLFQIFRKLFSRGDLTLPSSKKSTLEKEQFVNWCRKVYEAFKTKLLAIISDIPFETSLGLDSLDVYLQLAELESTHFASEKGAPFFPNKTFRKLIIALWSSNMGEIEDVKSSGASENLIIVEFTEKYYTKFADIQYYFQSEFNQLLEDPAYQDLLLKNVGKWLALVNHDKHCSSVDADLEIFVPNPPQAIENESKFKSNFEKNWLSLLNGQLSLQQYKSILLILHKRIIPHFHTPTKLMDFLTDSYNLQSSNKNAGVVPILALNGLFELMKRFNLEYPNFYMKLYQIINPDLMHVKYRARFFRLMDVFLSSTHLSAHLVASFIKKLARLTLESPPSAIVTVIPFIYNLIRKHPNCMIMLHNPAFISNPFQTPDQVANLKTLKENYVDPFDVHESDPELTHALDSSLWELASLMEHYHPNVATLAKIFAQPFKKLSYNMEDFLDWNYDSLLNAESSRKLKTLPTLEFEAFTNVFDNEDGDSEASSQGNVYLPGVAW	binds
Nop14 (protein, UniProt Q99207 1-810) MAGSQLKNLKAALKARGLTGQTNVKSKNKKNSKRQAKEYDREEKKKAIAEIREEFNPFEIKAARNKRRDGLPSKTADRIAVGKPGISKQIGEEQRKRAFEARKMMKNKRGGVIDKRFGERDKLLTEEEKMLERFTRERQSQSKRNANLFNLEDDEDDGDMFGDGLTHLGQSLSLEDELANDEEDFLASKRFNEDDAELQQPQRKKTKAEVMKEVIAKSKFYKQERQKAQGIMEDQIDNLDDNFEDVMSELMMTQPKKNPMEPKTDLDKEYDIKVKELQLDKRAAPSDRTKTEEEKNAEAEEKKRELEQQRLDRMNGMIELEEGEERGVEDLDDGFWENEEDYEDDNDGIADSDDDIKFEDQGRDEGFSQILKKKNISISCPRTHDALLDQVKKLDLDDHPKIVKNIIKAYQPKLAEGNKEKLGKFTAVLLRHIIFLSNQNYLKNVQSFKRTQNALISILKSLSEKYNRELSEECRDYINEMQARYKKNHFDALSNGDLVFFSIIGILFSTSDQYHLVITPALILMSQFLEQIKFNSLKRIAFGAVLVRIVSQYQRISKRYIPEVVYFFQKILLTFIVEKENQEKPLDFENIRLDSYELGLPLDVDFTKKRSTIIPLHTLSTMDTEAHPVDQCVSVLLNVMESLDATISTVWKSLPAFNEIILPIQQLLSAYTSKYSDFEKPRNILNKVEKLTKFTEHIPLALQNHKPVSIPTHAPKYEENFNPDKKSYDPDRTRSEINKMKAQLKKERKFTMKEIRKDAKFEARQRIEEKNKESSDYHAKMAHIVNTINTEEGAEKNKYERERKLRGGKK	binds

Continued, values first:

binding	Binder
binds	Rrt14 (protein, UniProt P40470 1-206) MSSSLSQTSKYQATSVVNGLLSNLLPGVPKIRANNGKTSVNNGSKAQLIDRNLKKRVQLQNRDVHKIKKKCKLVKKKKVKKHKLDKEQLEQLAKHQVLKKHQHEGTLTDHERKYLNKLIKRNSQNLRSWDLEEEVRDELEDIQQSILKDTVSTANTDRSKRRRFKRKQFKEDIKESDFVKDHRYPGLTPGLAPVGLSDEEDSSEED
binds	Rrp36 (in yeast cells) (protein, UniProt Q12481 1-300) MSYYFKNLKPDLNSDVEEDDGNLLESIMANKSKREIDEQESSDDELKTLSFGSLKKAETVIDEEDFKDTKPVHKKPITTTYREESFDEDEDSEDQSDEDAGFFEEDSEDETHHGQKVPKKKSKHAPVEQSSKKRVPRVRNIPGLEIPRNKRSNLYQDIRFDKSTGKALDSSIIRKRYQFLDEYREKEIDELQKLLQERKFLSKIDQGEREEMEQRLKSMKSRLQSMKNKDLEREILKEYENDMNKNNNTRYHLKKSEKRKVVQKWKFDHMKAKQREKVMERKRKKRLGKEFKQFEFHNRR
